Source: the supplement of paper PMC11348887
Structures can show the parent of a compound that is named as a salt. Some of the results follow. Small differences around the control level are noise.

System: hPSC-derived cortical neurons (WA09)
Assay: nucleus area z-score vs screen plate; higher = larger nuclei (more mature)
Details: 5 µM; treatment: days 7-14 after plating, readout day 21

Compound	nucleus area z-score
C=CCNc1ncnc2ccc(Br)cc12	0.728
O=C(O)C(O)Cc1ccc(O)c(O)c1 (stereo not given) [Sodium Danshensu]	0.856
CC(=O)N1CCN(c2ccc(OCC3COC(Cn4ccnc4)(c4ccc(Cl)cc4Cl)O3)cc2)CC1 (stereo not given) [Ketoconazole]	0.0914
CN1CCOC(c2ccccc2)c2ccccc2C1 (stereo not given) [Nefopam HCl]	0.0321
Cc1c(NC(=O)c2ccc(C(C)(C)C)cc2)cccc1-c1cn(C)c(=O)c(Nc2ccc(C(=O)N3CCOCC3)cc2)n1	2.14
COc1ccccc1OCC(O)CN1CCN(CC(=O)Nc2c(C)cccc2C)CC1 (stereo not given) [Ranolazine 2HCl]	0.956
CSc1cccc(Nc2ncc3cc(-c4c(Cl)cccc4Cl)c(=O)n(C)c3n2)c1	-0.559
C=C1C[C@@]2(O)O[C@@]3(C[C@H]2C(C)C)[C@@H](C)CC[C@@H]13 [Curcumol]	-0.19
CCOC(=O)CC(=O)N1CCSC1COc1ccccc1OC (stereo not given) [Moguisteine]	-0.0404
Cn1nc(C(C)(C)C)cc1C(=O)N[C@@H](Cc1cccc(Cl)c1)C(=O)NCC#N [Cathepsin Inhibitor 1]	-0.203
O=c1c(O)c(-c2ccc(O)c(O)c2)oc2cc(O)ccc12 [Fisetin]	0.526
c1ccc2[nH]c(-c3cscn3)nc2c1 [Thiabendazole]	0.329
COc1cc(C(C)=O)ccc1OCCCN1CCC(c2noc3cc(F)ccc23)CC1 [Iloperidone]	-0.227
CCOC(=O)c1c(C)n(C)c2ccc(O)cc12 [Mecarbinate]	0.0897
CCCCOc1cc(C(=O)NCCN(CC)CC)c2ccccc2n1 [Dibucaine HCl]	-0.385

Some values from the list.
For nucleus area z-score, COc1cc(C(C)=O)ccc1OCCCN1CCC(c2noc3cc(F)ccc23)CC1 [Iloperidone] reads -0.227
For nucleus area z-score, O=c1c(O)c(-c2ccc(O)c(O)c2)oc2cc(O)ccc12 [Fisetin] reads 0.526
